Source: PubChem BioAssay AID504808 (Drosophila RNAi Screening Center, 2011)

- Purpose: 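Chromatin factors that keep E2F targets switched off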 (primary screen)
- Cells: Drosophila S2 cells
- Reagent: long dsRNA against Drosophila genes
- Measurement: 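Firefly luciferase driven by E2F sites, normalised to Renilla luciferase on the same minimal promoter, measured by plate reader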
- Direction: E2F firefly: higher = more E2F reporter activity; Renilla normaliser: higher = more normaliser reporter signal
- Hit rule: 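a knock-down counted as active when the firefly/Renilla E2F signal rose above 50%, a threshold chosen arbitrarily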
The screen tested about 21,000 reagents; shown is a random part of those that have a named target and a result. Over the whole deposit, 18 (0.084%) were called active. 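Raw counts without plate normalisation, one of two replicates; the ratio scores behind the calls were not deposited.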 A plus sign joins genes that one reagent is predicted to hit. No sequences are given here. Not stated in the record: the amount of reagent, the time to read-out.

| predicted target | dsRNA | E2F firefly, rep 1 | Renilla normaliser, rep 1 | activity call |
| --- | --- | --- | --- | --- |
| CG16865 | DRSC01904 | 1.02e5 | 4441 | inactive |
| CG8281 | DRSC10976 | 98837 | 3848 | inactive |
| CG10051 | DRSC05959 | 1.60e5 | 5677 | inactive |
| dy (dusky) | DRSC20325 | 81329 | 4590 | inactive |
| CG13031 | DRSC09911 | 1.75e5 | 9219 | inactive |
| Brr2 (Brr2 U5 snRNP complex subunit) | DRSC10559 | 55259 | 3531 | inactive |
| CG14298 | DRSC14777 | 1.15e5 | 8257 | inactive |
| CG18088 | DRSC02654 | 1.54e5 | 5093 | inactive |
| CG30047 | DRSC05340 | 1.32e5 | 4588 | inactive |
| CG16986 | DRSC08502 | 93954 | 4054 | inactive |
| RpLP2 (Ribosomal protein LP2) | DRSC07539 | 80007 | 4594 | inactive |
| CG14374 | DRSC14834 | 1.17e5 | 5591 | inactive |
| jbug (jitterbug) | DRSC03952 | 1.26e5 | 4935 | inactive |
| jbug (jitterbug) | DRSC04114 | 79413 | 3503 | inactive |
| jbug (jitterbug) | DRSC04167 | 93452 | 4025 | inactive |
| jbug (jitterbug) | DRSC04388 | 1.18e5 | 4698 | inactive |
| Hesr (HES-related) | DRSC19965 | 1.68e5 | 6555 | inactive |
| OtopLa (Otopetrin-like a) | DRSC17787 | 1.08e5 | 5066 | inactive |
| OtopLa (Otopetrin-like a) | DRSC18133 | 1.19e5 | 5498 | inactive |
| CG31288 | DRSC14667 | 1.17e5 | 7296 | inactive |
| CG4271 | DRSC00649 | 1.70e5 | 5823 | inactive |
| tgy (twiggy) | DRSC20045 | 1.37e5 | 4998 | inactive |
| FucTC (alpha1,3-fucosyltransferase C) | DRSC20966 | 86961 | 2640 | inactive |
| OS9 + Hf | DRSC03392 | 86043 | 3667 | inactive |
| Akh (Adipokinetic hormone) | DRSC08138 | 98840 | 4119 | inactive |
| skl (sickle) | DRSC10050 | 1.56e5 | 8307 | inactive |
| RpL11 (Ribosomal protein L11) | DRSC07537 | 55081 | 3601 | inactive |
| Cisd2 (CDGSH iron sulfur domain 2) | DRSC14904 | 1.27e5 | 5761 | inactive |
| Srpk79D (Serine-arginine protein kinase at 79D) | DRSC11668 | 82805 | 3683 | inactive |
| Srpk79D (Serine-arginine protein kinase at 79D) | DRSC11856 | 1.41e5 | 6597 | inactive |
| CG7140 | DRSC11799 | 1.38e5 | 6642 | inactive |

Continued (2 carried over from the part before).
| predicted target | dsRNA | E2F firefly, rep 1 | Renilla normaliser, rep 1 | activity call |
| --- | --- | --- | --- | --- |
| Srpk79D (Serine-arginine protein kinase at 79D) | DRSC11856 | 1.41e5 | 6597 | inactive |
| CG7140 | DRSC11799 | 1.38e5 | 6642 | inactive |
| Schip1 (Schwannomin interacting protein 1) | DRSC02851 | 1.48e5 | 4917 | inactive |
| Zfrp8 (Zinc finger protein RP-8) | DRSC04352 | 1.09e5 | 4764 | inactive |
| sgg (shaggy) | DRSC17228 | 82155 | 2417 | inactive |
| sgg (shaggy) | DRSC17722 | 86919 | 2581 | inactive |
| sgg (shaggy) | DRSC18832 | 1.20e5 | 5540 | inactive |
| Cdk2 (Cyclin-dependent kinase 2) | DRSC16921 | 62695 | 2568 | inactive |
| Spn (Spinophilin) | DRSC07986 | 1.38e5 | 4853 | inactive |
| Spn (Spinophilin) | DRSC08490 | 81702 | 3555 | inactive |
| Spn (Spinophilin) | DRSC08491 | 89656 | 4213 | inactive |
| zip (zipper) | DRSC04725 | 1.27e5 | 5274 | inactive |
| CG8837 | DRSC00711 | 1.43e5 | 4876 | inactive |
| CG11007 | DRSC06023 | 66094 | 2797 | inactive |
| ND-42 (NADH dehydrogenase (ubiquinone) 42 kDa subunit) | DRSC16754 | 69940 | 3285 | inactive |
| shakB (shaking B) | DRSC20492 | 97383 | 6306 | inactive |
| shakB (shaking B) | DRSC20585 | 1.37e5 | 7945 | inactive |
| Anp (Andropin) | DRSC14112 | 1.23e5 | 6363 | inactive |
| rho-4 (rhomboid-4) | DRSC19761 | 7591 | 848 | inactive |
| rho-4 (rhomboid-4) | DRSC19762 | 1.29e5 | 6068 | inactive |
| su(w[a]) (suppressor of white-apricot) | DRSC18840 | 1896 | 892 | inactive |
| Clc (Clathrin light chain) | DRSC11116 | 74927 | 3589 | inactive |
| Liprin-gamma | DRSC04093 | 51549 | 3277 | inactive |
| CG8060 | DRSC07064 | 74291 | 3629 | inactive |
| CG10591 | DRSC09748 | 78037 | 3891 | inactive |
| tow (target of wingless) | DRSC10192 | 72602 | 3716 | inactive |
| CG14419 | DRSC17916 | 1.24e5 | 5744 | inactive |
| CG14125 | DRSC10129 | 1.22e5 | 6718 | inactive |
